Assay results as given in PMC10719344.
No constants are given. Whether binding was seen depends on the method and setting. Binding seen in cells or lysates may run through a third protein. Some results given as binding are weak or reduced against the parent protein; the word gives no strength.

Chains of the proteins cited; added tags and fusions are not shown.
UniProt Q92841: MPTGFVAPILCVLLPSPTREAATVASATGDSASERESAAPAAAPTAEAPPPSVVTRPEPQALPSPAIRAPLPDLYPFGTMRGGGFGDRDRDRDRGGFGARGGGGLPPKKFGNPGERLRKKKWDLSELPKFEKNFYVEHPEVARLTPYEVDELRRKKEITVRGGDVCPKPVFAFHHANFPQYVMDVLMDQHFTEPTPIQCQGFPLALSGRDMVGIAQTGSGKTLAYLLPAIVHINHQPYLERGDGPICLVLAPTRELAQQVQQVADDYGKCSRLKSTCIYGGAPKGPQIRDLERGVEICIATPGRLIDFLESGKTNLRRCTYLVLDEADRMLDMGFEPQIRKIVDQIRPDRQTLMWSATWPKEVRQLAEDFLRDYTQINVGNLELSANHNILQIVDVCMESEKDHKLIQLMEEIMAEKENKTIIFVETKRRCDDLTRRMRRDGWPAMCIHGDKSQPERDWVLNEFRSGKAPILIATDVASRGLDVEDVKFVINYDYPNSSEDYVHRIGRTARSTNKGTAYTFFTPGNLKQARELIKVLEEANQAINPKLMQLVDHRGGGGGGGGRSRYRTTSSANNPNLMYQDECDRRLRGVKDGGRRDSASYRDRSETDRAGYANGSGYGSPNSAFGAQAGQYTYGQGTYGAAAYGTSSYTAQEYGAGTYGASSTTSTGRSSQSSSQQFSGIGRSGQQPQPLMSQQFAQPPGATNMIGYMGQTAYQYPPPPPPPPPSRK
UniProt P84022: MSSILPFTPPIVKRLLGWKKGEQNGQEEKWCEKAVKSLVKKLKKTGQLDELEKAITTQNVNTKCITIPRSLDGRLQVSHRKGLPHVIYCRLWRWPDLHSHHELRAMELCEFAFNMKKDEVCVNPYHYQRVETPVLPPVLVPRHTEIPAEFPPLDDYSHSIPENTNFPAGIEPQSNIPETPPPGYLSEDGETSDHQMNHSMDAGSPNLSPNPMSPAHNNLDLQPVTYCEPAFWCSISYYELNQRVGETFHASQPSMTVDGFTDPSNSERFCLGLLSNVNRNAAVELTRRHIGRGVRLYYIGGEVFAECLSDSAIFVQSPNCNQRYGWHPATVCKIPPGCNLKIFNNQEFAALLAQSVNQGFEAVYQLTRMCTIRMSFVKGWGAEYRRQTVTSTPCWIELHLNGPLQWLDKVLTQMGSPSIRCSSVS

Target: HA-DDX17 (UniProt Q92841)
Test: co-IP; IP with anti-HA antibody (HA-DDX17) from lysates of HEK293T cells co-transfected with HA-DDX17 and FLAG-SMAD3 or FLAG-SMAD3 mutants; 5 uM MG-132 for 12 h before harvest; with or without SB431542; blot with anti-FLAG

With FLAG-SMAD3 (from UniProt P84022 1-425) the binding was “binds”.
